Test results taken from the supplement of paper PMC6411743.
± gives the standard deviation of the averaged measurements. The list shows a part of the results.

Key:
Experiment in all cases: NP40-soluble protein abundance relative to vehicle (solubility fold change) (ratio); higher = more soluble protein in presence of GTP
[1] = molecular target: T1, USP1 (UniProt O94782)
T1 sequence (whole entry): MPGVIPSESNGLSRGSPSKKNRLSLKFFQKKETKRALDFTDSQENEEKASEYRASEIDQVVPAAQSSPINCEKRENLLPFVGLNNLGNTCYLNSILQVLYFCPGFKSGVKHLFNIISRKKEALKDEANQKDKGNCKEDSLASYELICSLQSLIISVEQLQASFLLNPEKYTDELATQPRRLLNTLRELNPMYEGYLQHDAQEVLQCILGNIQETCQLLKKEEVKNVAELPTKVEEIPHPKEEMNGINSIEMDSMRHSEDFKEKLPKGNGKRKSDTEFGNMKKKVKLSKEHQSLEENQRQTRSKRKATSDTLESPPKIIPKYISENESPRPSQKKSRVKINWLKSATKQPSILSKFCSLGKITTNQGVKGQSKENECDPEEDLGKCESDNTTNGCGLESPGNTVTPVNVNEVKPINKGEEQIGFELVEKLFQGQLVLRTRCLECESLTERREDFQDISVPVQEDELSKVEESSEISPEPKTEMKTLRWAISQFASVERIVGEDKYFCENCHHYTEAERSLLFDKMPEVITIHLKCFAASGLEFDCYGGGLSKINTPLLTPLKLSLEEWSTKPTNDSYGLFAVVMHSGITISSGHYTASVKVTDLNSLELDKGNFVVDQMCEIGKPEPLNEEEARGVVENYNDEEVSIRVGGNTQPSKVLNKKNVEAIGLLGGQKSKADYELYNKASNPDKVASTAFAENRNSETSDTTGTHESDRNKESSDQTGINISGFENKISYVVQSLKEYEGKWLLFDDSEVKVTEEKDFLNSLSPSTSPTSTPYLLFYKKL
Outline: (§1)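 In three independent experiments, Jurkat crude lysate made by Dounce homogenisation was treated for 10 min at room temperature and then 3 min at 37 °C with eight concentrations ranging from 0.1 to 10 mM. It was then solubilised with 0.8% NP40 plus benzonase for 60 min at 4 °C and ultracentrifuged. The supernatant was TMT-labelled for LC-MS/MS, and each value is the fold change against the detergent-processed vehicle for the same replicate, using vsn-normalised intensities.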

[2] = molecular target: T2, UniProt O95294 and related entries
T2 sequence (whole entry): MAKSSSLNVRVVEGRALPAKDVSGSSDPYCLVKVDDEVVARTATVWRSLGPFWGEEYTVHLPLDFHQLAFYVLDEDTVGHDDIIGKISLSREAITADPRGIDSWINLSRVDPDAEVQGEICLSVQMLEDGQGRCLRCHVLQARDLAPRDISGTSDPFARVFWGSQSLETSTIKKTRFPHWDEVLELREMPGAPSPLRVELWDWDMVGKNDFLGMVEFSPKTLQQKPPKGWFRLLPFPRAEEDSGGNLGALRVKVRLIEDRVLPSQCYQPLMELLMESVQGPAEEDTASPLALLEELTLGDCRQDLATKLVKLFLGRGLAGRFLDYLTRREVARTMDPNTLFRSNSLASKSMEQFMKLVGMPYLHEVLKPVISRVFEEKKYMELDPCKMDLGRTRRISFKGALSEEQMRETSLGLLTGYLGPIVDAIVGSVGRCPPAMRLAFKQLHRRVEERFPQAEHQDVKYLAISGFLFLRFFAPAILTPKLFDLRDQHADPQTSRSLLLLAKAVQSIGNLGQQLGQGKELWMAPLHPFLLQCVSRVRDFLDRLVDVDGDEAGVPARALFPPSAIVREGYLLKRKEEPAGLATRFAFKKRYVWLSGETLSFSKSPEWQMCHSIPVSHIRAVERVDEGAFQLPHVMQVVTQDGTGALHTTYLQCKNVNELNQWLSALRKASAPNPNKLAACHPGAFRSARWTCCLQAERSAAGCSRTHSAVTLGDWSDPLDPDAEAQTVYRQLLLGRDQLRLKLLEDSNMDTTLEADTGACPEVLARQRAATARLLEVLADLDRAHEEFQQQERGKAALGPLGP
Outline: as §1

[3] = molecular target: T3, UniProt O95379-3|O95379-4
T3 sequence (whole entry): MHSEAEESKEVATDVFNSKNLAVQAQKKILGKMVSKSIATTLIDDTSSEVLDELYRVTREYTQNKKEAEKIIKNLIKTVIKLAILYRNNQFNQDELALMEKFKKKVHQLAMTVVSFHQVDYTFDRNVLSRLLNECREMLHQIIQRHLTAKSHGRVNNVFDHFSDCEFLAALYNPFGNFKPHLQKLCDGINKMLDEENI
Outline: as §1

[4] = molecular target: T4, UniProt O95479 and related entries
T4 sequence (whole entry): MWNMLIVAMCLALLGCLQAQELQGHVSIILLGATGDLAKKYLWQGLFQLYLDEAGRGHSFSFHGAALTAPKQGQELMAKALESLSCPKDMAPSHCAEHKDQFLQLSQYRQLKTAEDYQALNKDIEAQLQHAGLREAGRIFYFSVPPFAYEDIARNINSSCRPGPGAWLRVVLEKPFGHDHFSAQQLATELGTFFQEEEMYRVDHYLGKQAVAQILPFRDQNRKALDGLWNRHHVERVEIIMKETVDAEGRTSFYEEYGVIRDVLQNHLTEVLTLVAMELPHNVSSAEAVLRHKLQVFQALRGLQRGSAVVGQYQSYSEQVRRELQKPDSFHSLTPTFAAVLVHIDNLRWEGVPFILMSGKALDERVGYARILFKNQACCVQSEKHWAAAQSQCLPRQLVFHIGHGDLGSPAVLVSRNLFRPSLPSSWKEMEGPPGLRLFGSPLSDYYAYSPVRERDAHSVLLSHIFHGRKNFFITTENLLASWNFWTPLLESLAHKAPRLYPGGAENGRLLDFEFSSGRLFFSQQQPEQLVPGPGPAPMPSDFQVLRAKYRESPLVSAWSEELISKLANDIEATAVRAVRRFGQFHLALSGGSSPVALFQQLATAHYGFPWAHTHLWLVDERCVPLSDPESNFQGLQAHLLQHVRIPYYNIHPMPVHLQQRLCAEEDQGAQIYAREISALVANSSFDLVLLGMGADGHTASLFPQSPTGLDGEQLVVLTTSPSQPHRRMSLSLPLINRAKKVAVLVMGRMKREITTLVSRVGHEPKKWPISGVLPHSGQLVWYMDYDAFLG
Outline: as §1

With `Nc1nc2c(ncn2[C@@H]2O[C@H](COP(=O)(O)OP(=O)(O)OP(=O)(O)O)[C@@H](O)[C@H]2O)c(=O)[nH]1` [guanosine triphosphate] the NP40-soluble protein abundance ([1]; concentration: 4mM) was 0.983 ± 0.039, the NP40-soluble protein abundance ([1]; concentration: 6mM) was 0.976 ± 0.016 and the NP40-soluble protein abundance ([1]; concentration: 8mM) was 0.995 ± 0.025. The NP40-soluble protein abundance ([1]; concentration: 10mM) was 0.981 ± 0.026, the NP40-soluble protein abundance ([2]; concentration: 0.1mM) was 0.945 ± 0.051 and the NP40-soluble protein abundance ([2]; concentration: 0.5mM) was 0.934 ± 0.2. For the same molecule, the NP40-soluble protein abundance ([2]; concentration: 1mM) was 0.928 ± 0.15, the NP40-soluble protein abundance ([2]; concentration: 2mM) was 0.894 ± 0.15 and the NP40-soluble protein abundance ([2]; concentration: 4mM) was 0.947 ± 0.12. The NP40-soluble protein abundance ([2]; concentration: 6mM) was 1.01 ± 0.039, the NP40-soluble protein abundance ([2]; concentration: 8mM) was 0.979 ± 0.13 and the NP40-soluble protein abundance ([2]; concentration: 10mM) was 1.04 ± 0.15. For the same molecule, the NP40-soluble protein abundance ([3]; concentration: 0.1mM) was 0.897 ± 0.024, the NP40-soluble protein abundance ([3]; concentration: 0.5mM) was 0.877 ± 0.057 and the NP40-soluble protein abundance ([3]; concentration: 1mM) was 0.938 ± 0.064. It also gave an NP40-soluble protein abundance ([3]; concentration: 2mM) of 0.917 ± 0.093, an NP40-soluble protein abundance ([3]; concentration: 4mM) of 0.922 ± 0.1 and an NP40-soluble protein abundance ([3]; concentration: 6mM) of 0.933 ± 0.095. It also gave an NP40-soluble protein abundance ([3]; concentration: 8mM) of 0.879 ± 0.13, an NP40-soluble protein abundance ([3]; concentration: 10mM) of 0.955 ± 0.086 and an NP40-soluble protein abundance ([4]; concentration: 0.1mM) of 1.04 ± 0.028. It also gave an NP40-soluble protein abundance ([4]; concentration: 0.5mM) of 0.999 ± 0.023, an NP40-soluble protein abundance ([4]; concentration: 1mM) of 1.07 ± 0.044 and an NP40-soluble protein abundance ([4]; concentration: 2mM) of 1.05 ± 0.081. It also gave an NP40-soluble protein abundance ([4]; concentration: 4mM) of 0.975 ± 0.093 and an NP40-soluble protein abundance ([4]; concentration: 6mM) of 1.033 ± 0.0057.
